Variants at the floor of the assay are shown more often than the library holds them.
Assays:
biotinyl-Phe-oxazolone = experiment: self-aminoacylation, catalytic enhancement (BFO) (fold over background); higher = more active; k-Seq, kA / k0A0; sequences stand for … in GGGAAUGGAUCCACAUCUACGAAUUC…UUCACUGCAGACUUGACGAAGCUG
How it was run: (§1)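 Mutagenized RNA pools (0.43 μM; 21-nt variable region) were treated with 2–1250 μM of each biotinyl-aminoacyl-oxazolone. Conditions were 50 μL HEPES/NaCl/KCl/MgCl2/CaCl2 buffer, 5% acetonitrile, pH 6.9–7.0, room temperature, 90 minutes. Catalytic enhancement, the median kA relative to the uncatalyzed rate, was derived from streptavidin capture, qPCR and Illumina sequencing.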

biotinyl-Ile-oxazolone = experiment: self-aminoacylation, catalytic enhancement (BIO) (fold over background); higher = more active; k-Seq, kA / k0A0; sequences stand for … in GGGAAUGGAUCCACAUCUACGAAUUC…UUCACUGCAGACUUGACGAAGCUG
How it was run: as §1

biotinyl-Leu-oxazolone = experiment: self-aminoacylation, catalytic enhancement (BLO) (fold over background); higher = more active; k-Seq, kA / k0A0; sequences stand for … in GGGAAUGGAUCCACAUCUACGAAUUC…UUCACUGCAGACUUGACGAAGCUG
How it was run: as §1

biotinyl-Trp-oxazolone = experiment: self-aminoacylation, catalytic enhancement (BWO) (fold over background); higher = more active; k-Seq, kA / k0A0; sequences stand for … in GGGAAUGGAUCCACAUCUACGAAUUC…UUCACUGCAGACUUGACGAAGCUG
How it was run: as §1

biotinyl-Met-oxazolone = experiment: self-aminoacylation, catalytic enhancement (BMO) (fold over background); higher = more active; k-Seq, kA / k0A0; sequences stand for … in GGGAAUGGAUCCACAUCUACGAAUUC…UUCACUGCAGACUUGACGAAGCUG
How it was run: as §1

biotinyl-Val-oxazolone = experiment: self-aminoacylation, catalytic enhancement (BVO) (fold over background); higher = more active; k-Seq, kA / k0A0; sequences stand for … in GGGAAUGGAUCCACAUCUACGAAUUC…UUCACUGCAGACUUGACGAAGCUG
How it was run: as §1

Sequence | self-aminoacylation (biotinyl-Phe-oxazolone) | self-aminoacylation (biotinyl-Ile-oxazolone) | self-aminoacylation (biotinyl-Leu-oxazolone) | self-aminoacylation (biotinyl-Trp-oxazolone) | self-aminoacylation (biotinyl-Met-oxazolone) | self-aminoacylation (biotinyl-Val-oxazolone)
AAAUUUGCUAAUAGCCGCAAG [Fam3.1 aminoacylation ribozyme variant] | 1.51 | 1.86 | 1.16 | 1.27 | 1.16 | 1.38
AAAUUUGGUAAUAGUCGCAAG [Fam3.1 aminoacylation ribozyme variant] | 2.12 | 2.2 | 1.86 | 2.27 | 1.88 | 1.74
AAAUUUGUUAAUAGUCGCAAG [Fam3.1 aminoacylation ribozyme variant] | 2.69 | 2.11 | 1.99 | 1.76 | 2.04 | 1.59
AAGAUUGAUAAUAGUCGCAAG [Fam3.1 aminoacylation ribozyme variant] | 1.12 | 1.21 | 1.1 | 2.33 | 1.66 | 1.1
AAGAUUGCUAAUAAUCGCAAG [Fam3.1 aminoacylation ribozyme variant] | 1.68 | 1.4 | 1.23 | 1.29 | 1.14 | 1.21
AAGAUUGCUAAUAGCCGCAAG [Fam3.1 aminoacylation ribozyme variant] | 1.71 | 1.94 | 1.58 | 2.47 | 1.3 | 1.59
AAGCUUGCUAAUAGUGGCAAG [Fam3.1 aminoacylation ribozyme variant] | 0.919 | 1.25 | 0.987 | 1.03 | 1.28 | 0.879
AAGGUUACUAAUAGUCGCAAG [Fam3.1 aminoacylation ribozyme variant] | 2.19 | 1.39 | 1.3 | 1.6 | 1.25 | 1.38
AAGGUUGCUAAUAGUUGCAAG [Fam3.1 aminoacylation ribozyme variant] | 1.19 | 1.2 | 1.41 | 1.13 | 1.48 | 1.3
AAGUAUGCUAAUAGUCCCAAG [Fam3.1 aminoacylation ribozyme variant] | 3.66 | 1.14 | 1.02 | 1.54 | 1.18 | 1.16
AAGUAUGCUAAUAGUGGCAAG [Fam3.1 aminoacylation ribozyme variant] | 0.919 | 0.856 | 0.796 | 0.924 | 0.947 | 0.758
AAGUCUGCUAAUAGUCGCAAA [Fam3.1 aminoacylation ribozyme variant] | 2.14 | 1.33 | 1.33 | 1.86 | 1.57 | 1.48
AAGUCUGCUAAUAGUCGCAAC [Fam3.1 aminoacylation ribozyme variant] | 1.39 | 1.03 | 1.39 | 0.655 | 1.04 | 1.06
AAGUCUGCUACUAGUCGCAAG [Fam3.1 aminoacylation ribozyme variant] | 0.846 | 0.699 | 1.15 | 0.731 | 0.856 | 0.84
AAGUGUGCUAAGAGUCGCAAG [Fam3.1 aminoacylation ribozyme variant] | 5.24 | 1.11 | 1.13 | 2.15 | 1.15 | 0.87
AAGUGUGUUAAUAGUCGCAAG [Fam3.1 aminoacylation ribozyme variant] | 1.86 | 1.49 | 1.6 | 1.42 | 1.48 | 1.38
AAGUUAGCUAAUAGUCGCUAG [Fam3.1 aminoacylation ribozyme variant] | 2.36 | 1.42 | 1.25 | 1.04 | 1.33 | 1.22
AAGUUAGCUACUAGUCGCAAG [Fam3.1 aminoacylation ribozyme variant] | 1.93 | 1.96 | 1.36 | 1.48 | 1.66 | 1.34
AAGUUAGCUAGUAGUCGCAAG [Fam3.1 aminoacylation ribozyme variant] | 1.96 | 1.64 | 1.11 | – | 1.53 | 1.49
AAGUUAGCUAUUAGUCGCAAG [Fam3.1 aminoacylation ribozyme variant] | 2.06 | 1.99 | 1.82 | 1.74 | 1.34 | 1.6
AAGUUCCCUAAUAGUCGCAAG [Fam3.1 aminoacylation ribozyme variant] | 0.485 | 1.12 | 0.965 | 0.613 | 0.931 | 0.992
AAGUUCGCUAAUAGACGCAAG [Fam3.1 aminoacylation ribozyme variant] | 0.983 | 0.737 | 0.714 | 0.66 | 0.557 | 0.602
AAGUUUACGAAUAGUCGCAAG [Fam3.1 aminoacylation ribozyme variant] | 2.82 | 1.67 | 1.55 | 1.77 | 1.55 | 1.26
AUUAACCUGGCCAUCGAGUGA [Fam2.1 aminoacylation ribozyme variant] | 1.86 | 1.52 | – | – | – | 1.39
AUUACCCUGUUCAUCGAGUGU [Fam2.1 aminoacylation ribozyme variant] | 1.59 | 1.46 | – | – | – | –
AUUCACCUAGGUCAUUAGGUG [Fam2.2 aminoacylation ribozyme variant] | 1.52 | 1.39 | 1.84 | – | 1.75 | 1.18
AUUUCCCUGGUCAUCGAGCGA [Fam2.1 aminoacylation ribozyme variant] | 0.815 | 1.7 | – | – | – | 1.96

Sequence | self-aminoacylation (biotinyl-Phe-oxazolone) | self-aminoacylation (biotinyl-Ile-oxazolone) | self-aminoacylation (biotinyl-Leu-oxazolone) | self-aminoacylation (biotinyl-Trp-oxazolone) | self-aminoacylation (biotinyl-Met-oxazolone) | self-aminoacylation (biotinyl-Val-oxazolone)
CCACACCUCAAGCAAUCGGUA [Fam1B.1 aminoacylation ribozyme variant] | 0.601 | 1.55 | 1.28 | 1.07 | 1.25 | –
CCACACUCCAAGCAUUCGGUC [Fam1B.1 aminoacylation ribozyme variant] | 1.41 | 1.96 | 1.97 | 1.37 | 1.76 | –
CCACACUCCGAGCAAUCGGUC [Fam1B.1 aminoacylation ribozyme variant] | 0.739 | 1.56 | 1.3 | – | 1.39 | 1.81
CCACACUGCAAGCAAUAGGUC [Fam1B.1 aminoacylation ribozyme variant] | – | 0.905 | 0.915 | 0.601 | 0.777 | 0.907
CCACACUUAAAGCAAUCGGGC [Fam1B.1 aminoacylation ribozyme variant] | 1.13 | – | 1.19 | 1.99 | 1.47 | 1.92
CCACACUUCAACCAAGCGGUC [Fam1B.1 aminoacylation ribozyme variant] | – | 0.95 | 0.761 | 0.613 | 0.914 | 1.08
CCACACUUCAAGCAAACGGCC [Fam1B.1 aminoacylation ribozyme variant] | 1.39 | – | – | – | 1.67 | –
CCACACUUCAAUCAAUCUGUC [Fam1B.1 aminoacylation ribozyme variant] | – | 0.425 | 0.343 | 0.342 | 0.429 | 0.58
CCACACUUCAAUCCAUCGGUC [Fam1B.1 aminoacylation ribozyme variant] | – | 0.801 | 0.676 | 0.553 | 0.824 | 0.91
CCACACUUCAGGCAAUCCGUC [Fam1B.1 aminoacylation ribozyme variant] | – | 1.46 | 1.38 | 1.24 | 1.27 | 1.59
CCACACUUCUAGCAAUCGGCC [Fam1B.1 aminoacylation ribozyme variant] | 1.99 | 1.84 | – | – | – | –
CCACGGUUCAAGCAAUCGGUC [Fam1B.1 aminoacylation ribozyme variant] | – | 1.08 | 1.07 | 2.21 | 1.02 | 1.22
CCACUUCAAACAAUCAGUCUG [Fam1A.1 aminoacylation ribozyme variant] | – | 1.03 | 1.23 | 10.1 | 0.98 | 0.803
CCACUUCAAACAAUCGGUCUA [Fam1A.1 aminoacylation ribozyme variant] | – | 1.19 | 1.5 | 17.4 | 0.991 | 0.99
CGACUUCAAACAAUCGGUCCG [Fam1A.1 aminoacylation ribozyme variant] | – | 1.03 | 1.08 | 4.64 | 1.19 | 0.948
CUACGUCAAACAAUCGGCCUG [Fam1A.1 aminoacylation ribozyme variant] | 1.36 | – | – | – | – | –
CUACUACAAACUAUCGGUCUG [Fam1A.1 aminoacylation ribozyme variant] | – | 0.869 | 0.713 | 0.717 | 0.949 | 0.839
CUACUCCAAACAAACGGUCUG [Fam1A.1 aminoacylation ribozyme variant] | – | 0.816 | 0.71 | 0.918 | 0.531 | 0.981
CUACUGCCAACAAUCGGUCUG [Fam1A.1 aminoacylation ribozyme variant] | – | 0.744 | 0.64 | 0.531 | 0.773 | 0.744
CUACUUCAAACAAGCGGUCGG [Fam1A.1 aminoacylation ribozyme variant] | – | 1.44 | 1.64 | 1.12 | 1.42 | 1.3
CUACUUCAAACACCCGGUCUG [Fam1A.1 aminoacylation ribozyme variant] | 0.961 | 1.75 | 1.68 | – | 1.71 | 1.75
CUACUUCCAACAGUCGGUCUG [Fam1A.1 aminoacylation ribozyme variant] | – | 0.911 | 0.971 | 0.76 | 1.06 | 0.851
CUAGUUCAAACAAUCGGUAUG [Fam1A.1 aminoacylation ribozyme variant] | – | 0.706 | 0.844 | 1.66 | 0.794 | 0.786
CUAUUUCAACCAAUCGGUCUG [Fam1A.1 aminoacylation ribozyme variant] | – | 0.731 | 0.692 | 1.62 | 0.672 | 0.676
CUUCAUCAAACAAUCGGUCUG [Fam1A.1 aminoacylation ribozyme variant] | – | 0.889 | 0.888 | 1.68 | 0.71 | 0.848
GUACUUCGAACAAUCGGUCUG [Fam1A.1 aminoacylation ribozyme variant] | – | 1.45 | 1.48 | 1.66 | 1.34 | 1.44

Source: the supplement of paper PMC9233669
